Measurements reported in PubChem BioAssay AID1259254 (NCATS, 2017)
The deposit covers about 59,000 reagents; below is a part drawn at random. About 1,550 of them (2.6%) count as active. 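G2 share is only a proxy for re-replication; each gene was hit by three separate siRNAs, and active genes were retested.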 A number with no mark means an inactive call. The numbers tell different reagents against one gene apart. Further read-outs or replicates are left out here. Not stated in the record: the amount of reagent.

Test: 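Gene knock-downs that lead to re-replication, shown by excess G2 DNA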 (primary screen)
Cells: human HCT116 colorectal cancer cells
Reagents: single siRNA against human genes
Duration: 3 days
Measurement: 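Nuclei stained with Hoechst and imaged; cell-cycle phase assigned by DNA content; G2 share scaled per plate, non-targeting siRNA 0%, GMNN siRNA 100%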
Direction: G2 robust z-score: higher = more G2 cells, more excess DNA replication
Active means: 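Active siRNAs have a G2 robust z of 5 or more median absolute deviations over the median, which in these data means about 38% or higher of GMNN control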

COL5A2 #1 → G2 robust z-score = -0.665
COL5A2 #2 → G2 robust z-score = 0.621
COL5A2 #3 → G2 robust z-score = -0.884
YJU2B #1 → G2 robust z-score = -0.285
YJU2B #2 → G2 robust z-score = -0.289
YJU2B #3 → G2 robust z-score = -0.278
DNAH9 #1 → G2 robust z-score = 1.14
DNAH9 #2 → G2 robust z-score = -0.985
DNAH9 #3 → G2 robust z-score = 2.66
PPM1F #1 → G2 robust z-score = 0.172
PPM1F #2 → G2 robust z-score = -0.45
PPM1F #3 → G2 robust z-score = 5.6 (active)
SFI1 #1 → G2 robust z-score = 2.24
SFI1 #2 → G2 robust z-score = 2.02
SFI1 #3 → G2 robust z-score = -0.776
DENND4A #1 → G2 robust z-score = -0.505
DENND4A #2 → G2 robust z-score = 2.2
DENND4A #3 → G2 robust z-score = 0.121
TEX2 #1 → G2 robust z-score = 0.605
TEX2 #2 → G2 robust z-score = 0.0818
TEX2 #3 → G2 robust z-score = -0.979
TMEM242 #1 → G2 robust z-score = -0.0691
TMEM242 #2 → G2 robust z-score = 0.0436
TMEM242 #3 → G2 robust z-score = 0.608
ACTR8 #1 → G2 robust z-score = -0.904
ACTR8 #2 → G2 robust z-score = -0.216
ACTR8 #3 → G2 robust z-score = -0.273
TBCEL #1 → G2 robust z-score = 4.38
TBCEL #2 → G2 robust z-score = -0.21
TBCEL #3 → G2 robust z-score = 0.178

Entries above called active (1):
PPM1F #3 → G2 robust z-score = 5.6 (active)
